Reference: PubChem BioAssay AID652272 (Drosophila RNAi Screening Center, 2013)
Assay: 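Genome-wide knock-down search for components of Hedgehog signalling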 (primary screen). System: Drosophila clone 8 (Cl8) cells. Knock-down reagent: long dsRNA against Drosophila genes. Detection: 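Plate reader light from a firefly reporter under a ptc promoter fragment that responds to Hedgehog, with Renilla light as transfection reference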. Scale: firefly Hh reporter signal: higher = more ptc reporter light; Renilla reference signal: higher = more Renilla control light. Call rule: 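Hit when the z-score averaged over two replicates is under -2 or over +3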. Meaning of the calls: active = hit: reporter lowered or raised; inactive = not a hit.
In all, the deposit lists about 21,000 reagents; below is a random part of those that have a named target and a result. Of all reagents, 503 (2.4%) were called active. 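Raw plate light values, not normalised; calls rest on replicate z-scores that were not deposited; hits include reporter decreases as well as increases.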 Not given: the amount of reagent, the time to read-out.

| target | amplicon | firefly Hh reporter signal, replicate 1 | firefly Hh reporter signal, replicate 2 | firefly Hh reporter signal, replicate 3 | Renilla reference signal, replicate 1 | Renilla reference signal, replicate 2 | outcome |
| --- | --- | --- | --- | --- | --- | --- | --- |
| CG7920 | DRSC16346 | 1.54e5 | 1.40e5 | – | 3622 | 3584 | inactive |
| mira | DRSC16998 | 1.16e5 | 85832 | – | 5579 | 3574 | inactive |
| CG17032 | DRSC10241 | 1.34e5 | – | – | 2210 | 4071 | inactive |
| Mpcp1 | DRSC07337 | 86533 | 64173 | – | 2067 | 4480 | inactive |
| CG8401 | DRSC07165 | 1.24e5 | 84825 | – | 5431 | 3920 | inactive |
| ck | DRSC03509 | 54609 | 74352 | – | 2744 | 3228 | inactive |
| CG6324 | DRSC19985 | 74385 | 1.92e5 | – | 2161 | 7651 | inactive |
| Gli | DRSC03332 | 1.14e5 | 64157 | – | 3296 | 5266 | inactive |
| CG8299 | DRSC07139 | 81372 | 52525 | – | 1968 | 3458 | inactive |
| CG34417 | DRSC17467 | 5.05e5 | 1.57e5 | – | 26859 | 3792 | inactive |
| CG34417 | DRSC18332 | 1.01e5 | 2.91e5 | – | 4264 | 11307 | inactive |
| CG34417 | DRSC18333 | 1.11e5 | 72972 | – | 2872 | 1797 | inactive |
| CG17361 | DRSC10266 | 54765 | – | – | 5107 | 2021 | inactive |
| RpS20 | DRSC16836 | 2.52e5 | 33035 | – | 23661 | 7468 | active |
| CG4393 | DRSC15573 | 6.54e5 | 1.22e5 | – | 29773 | 2352 | inactive |
| CG8788 | DRSC07267 | 97140 | 68921 | – | 2169 | 5292 | inactive |
| lace | DRSC03564 | 1.07e5 | 89191 | – | 4296 | 3523 | inactive |
| Gk2 | DRSC08610 | 1.12e5 | 97687 | – | 5265 | 3768 | inactive |
| CG6040 | DRSC15954 | 1.02e5 | 57146 | – | 3994 | 2039 | inactive |
| CG15056 | DRSC19630 | 85253 | 3.67e5 | – | 2672 | 13236 | inactive |
| PIG-K | DRSC18496 | 83260 | 2.24e5 | – | 3379 | 7928 | inactive |
| CG12547 | DRSC07759 | 60664 | 46184 | – | 2235 | 3085 | inactive |
| DIP-epsilon | DRSC00932 | 8.48e5 | 4.28e5 | – | 44837 | 15851 | inactive |
| DIP-epsilon | DRSC02313 | 1.73e5 | 65944 | – | 3988 | 6009 | inactive |
| BaraB | DRSC06420 | 1.21e5 | 80745 | – | 2835 | 6274 | inactive |
| Caper | DRSC02137 | 78466 | 89270 | – | 3618 | 4035 | inactive |
| Sgs4 | DRSC18715 | 1.00e5 | 2.97e5 | – | 3732 | 10922 | inactive |
| TpnC4 | DRSC04856 | 67749 | 33341 | – | 1559 | 3418 | inactive |
| jus | DRSC14861 | 54546 | 29607 | – | 1761 | 836 | inactive |
| jus | DRSC14862 | 77201 | 83524 | – | 2475 | 2242 | inactive |
| TBC1D16 | DRSC02841 | 1.21e5 | 63546 | – | 3074 | 5371 | inactive |
| CG31635 | DRSC02273 | 70557 | 46129 | – | 1540 | 3744 | inactive |
| CG31635 | DRSC02274 | 69152 | 70920 | – | 2076 | 5324 | inactive |
| okr | DRSC00834 | 90259 | 1.12e5 | – | 3856 | 5205 | inactive |
| CG5674 | DRSC02874 | 47505 | 23746 | – | 1904 | 2989 | active |
| CG17760 | DRSC06694 | 1.20e5 | 68316 | – | 2980 | 5081 | inactive |
| Dyro | DRSC10598 | 36522 | 33536 | 23297 | 4652 | 2118 | inactive |
| Fas1 | DRSC16669 | 70272 | 1.07e5 | – | 1971 | 2810 | inactive |
| Hcs | DRSC12070 | 2.52e5 | – | – | 5229 | – | inactive |
| Hcs | DRSC12256 | 61298 | 97149 | – | 2413 | 2476 | inactive |
| CG17190 | DRSC15184 | 4.43e5 | 90860 | – | 23447 | 2566 | inactive |
| SCCRO4 | DRSC10671 | 97898 | 90084 | – | 3664 | 2845 | inactive |
| BRWD3 | DRSC15369 | 1.17e5 | 1.15e5 | – | 4970 | 5018 | inactive |
| BRWD3 | DRSC16032 | 4.70e5 | 92329 | – | 19898 | 2458 | inactive |
| CG30389 | DRSC04077 | 68240 | 55962 | – | 2355 | 1702 | inactive |
| CG30389 | DRSC04452 | 72357 | 62080 | – | 1530 | 5761 | inactive |
| CG1324 | DRSC20496 | 83312 | 1.05e5 | – | 2116 | 2016 | inactive |
| CG16926 | DRSC06637 | 81197 | 72581 | – | 3638 | 3155 | inactive |
| CG17896 | DRSC18502 | 1.12e5 | 1.02e5 | – | 2663 | 4115 | inactive |
| bun | DRSC01253 | 4.75e5 | 2.02e5 | – | 24523 | 10137 | inactive |
| bun | DRSC01255 | 4.72e5 | 1.27e5 | – | 16315 | 6288 | inactive |
| bun | DRSC03500 | 48836 | 29536 | – | 2528 | 1373 | inactive |
| S6k | DRSC11276 | 68018 | 81531 | – | 6965 | 5499 | inactive |
| E2f2 | DRSC03320 | 1.04e5 | 1.10e5 | – | 4337 | 4568 | inactive |
| aqrs | DRSC14724 | 87457 | 1.14e5 | – | 2972 | 2666 | inactive |
| gw | DRSC17135 | 1.62e5 | 85928 | – | 3184 | 2900 | inactive |
| gw | DRSC17160 | 42124 | 76444 | – | 1159 | 3340 | inactive |
| kon | DRSC02033 | 75744 | 51065 | – | 3178 | 1936 | inactive |
| Vha100-1 | DRSC14148 | 81609 | 90026 | – | 1888 | 2170 | inactive |
| rha | DRSC17044 | 96482 | 1.30e5 | – | 1129 | 2969 | inactive |
| SkpB | DRSC07683 | 1.29e5 | 74534 | – | 2342 | 4151 | inactive |
| Ubc6 | DRSC12370 | 1.05e5 | 75414 | – | 6065 | 4481 | active |
| CG17751 | DRSC15261 | 8.14e5 | 2.11e5 | – | 44625 | 5592 | inactive |
| Dad | DRSC16642 | 1.38e5 | 1.05e5 | – | 6838 | 5008 | inactive |
| CG15425 | DRSC00440 | 1.27e5 | 70265 | – | 1794 | 7760 | inactive |
| CG1688 | DRSC05934 | 52234 | 46427 | – | 2713 | 1618 | inactive |
| CG7231 | DRSC03034 | 79109 | 47330 | – | 2198 | 4264 | inactive |
| CG12091 | DRSC08251 | 62656 | 55913 | – | 2313 | 3928 | inactive |
| frj | DRSC03250 | 36267 | 64476 | – | 2288 | 3002 | inactive |
| Mal-A3 | DRSC07462 | 84253 | 47496 | – | 1916 | 3379 | inactive |
| mtg | DRSC16256 | 86933 | 1.04e5 | – | 2822 | 3078 | inactive |
| Elp5 | DRSC08547 | 77110 | 39430 | – | 2228 | 2454 | inactive |
| Mondo | DRSC02667 | 1.14e5 | 80184 | – | 4779 | 3372 | inactive |
| Mondo | DRSC02668 | 88765 | 49008 | – | 2365 | 4299 | inactive |

Ordered by “Renilla reference signal, replicate 1” (high to low): some entries from above.
| target | amplicon | firefly Hh reporter signal, replicate 1 | firefly Hh reporter signal, replicate 2 | firefly Hh reporter signal, replicate 3 | Renilla reference signal, replicate 1 | Renilla reference signal, replicate 2 | outcome |
| --- | --- | --- | --- | --- | --- | --- | --- |
| CG17190 | DRSC15184 | 4.43e5 | 90860 | – | 23447 | 2566 | inactive |
| Hcs | DRSC12070 | 2.52e5 | – | – | 5229 | – | inactive |
| BRWD3 | DRSC15369 | 1.17e5 | 1.15e5 | – | 4970 | 5018 | inactive |
| SCCRO4 | DRSC10671 | 97898 | 90084 | – | 3664 | 2845 | inactive |
| Hcs | DRSC12256 | 61298 | 97149 | – | 2413 | 2476 | inactive |
| Fas1 | DRSC16669 | 70272 | 1.07e5 | – | 1971 | 2810 | inactive |
